Entries after “also recorded” stand apart in the source; their conditions may differ. For at least one compound, name, drawing or mass did not settle the structure.
Tests used:
[1] = system: primary human CD34+ cells; assay: CD34+ cell liquid culture, live cell number and viability by trypan blue exclusion; format: cell-based; settings: 10 nM DAC daily for 3 days
Description: CD34+ cells were treated with one dose of CXCL4, CXCL7, or both (50 ng/mL each) or vehicle (PBS/0.1% BSA) and daily doses of 10 nM DAC for 3 days. After 3 days, live cell number (A) and viability (B) were assessed by trypan blue exclusion, and apoptosis (C) was analyzed by Annexin V and propodium iodide staining. The results shown are from one representative experiment out of two independent experiments.
Therefore, it was hypothesized that overabundance of CXCL4 and CXCL7 in the bone marrow microenvironment may act to overcome the effects of DAC. To test this, primary human CD34+ cells were cultured for 3 days in vitro with CXCL4 (50 ng/mL), CXCL7 (50 ng/mL) or a combination of both chemokines in either the presence or absence of low-dose DAC (10 nM) and then plated them in methylcellulose to test their clonogenic potential.
(§1) Cell culture and colony forming assays: CD34+ cells were isolated from cryopreserved BM MNC from femoral head specimens using the Miltenyi Biotec CD34 microbead isolation kit (San Diego, CA) per the manufacturer's instructions. For CMML cells, the cryopreserved BM MNC were rapidly thawed at 37° C. and treated with DNAse to prevent cell clumping. […] Live cell number and viability were determined by trypan blue exclusion. […] Colonies were counted after 12 to 15 days.

[2] = system: primary human CD34+ cells; assay: Colony forming assay in methylcellulose; format: cell-based; settings: 10 nM DAC daily for 3 days, then methylcellulose 12-15 days
Description: (§2) CD34+ cells were treated with one dose of CXCL4, CXCL7, or both (50 ng/mL each) or vehicle (PBS/0.1% BSA) and daily doses of 10 nM DAC for 3 days. After 3 days of in vitro treatment with DAC, the cells were plated in methylcellulose and incubated for 12-15 days before colonies were counted. Data represent mean+standard deviation (SD). […] Shown in the three panels are the results of three independent experiments. […] CMML MNC were treated in vitro for 72 h with 10 nM DAC alone or in the presence of 50 ng/mL of CXCL4, CXCL7, or both. Data represent mean+standard deviation (SD).
as §1, with “clumping. Cells were plated in pre-stimulation media (IMDM with 20% BIT (Stem Cell Technologies, Vancouver, BC, Canada), IL-6 (20 ng/mL), SCF (100 ng/ml), TPO (100 ng/mL), FLT3L (10 ng/mL); Peprotech, Rocky Hill, N.J.) and recovered overnight.” for “clumping.”

CD34+ cells = assay: Apoptosis assay, Annexin V and propidium iodide staining; format: cell-based, human; settings: 10 nM DAC daily for 3 days, with or without CXCL4/CXCL7 50 ng/mL
[3] = system: primary CMML cells (BM MNC); assay: Viability of primary CMML BM MNC in liquid culture; format: cell-based, human; settings: BM MNC from 3 DAC-sensitive patients, 10 nM DAC, 72 h
Description: as §2
Finally, the ability of CXCL4 and CXCL7 to induce resistance in primary CMML cells was tested. BM MNC from diagnostic specimens collected from 3 patients known to be sensitive to DAC were placed in liquid culture and treated for 72 h with 10 nM DAC in the presence or absence of 50 ng/mL of CXCL4, CXCL7 or a combination of both. Viability was assessed after 72 hours.
as §1, with “instructions.” for “instructions. For CMML cells, the cryopreserved BM MNC were rapidly thawed at 37° C. and treated with DNAse to prevent cell clumping.”

`Nc1ncn([C@H]2C[C@H](O)[C@@H](CO)O2)c(=O)n1` [DAC, Decitabine] was tested, and the cell viability ([1]; with or without CXCL4/CXCL7 50 ng/mL) was “did not reduce cell viability; also recorded: do not show diminished viability; also recorded: do not affect cell proliferation, viability, or apoptosis”, the “cell proliferation (live cell number)” value ([1]; with or without CXCL4/CXCL7 50 ng/mL each) was “did not affect cell proliferation; also recorded: do not affect cell proliferation, viability, or apoptosis” and the colony formation [2] was “significantly reduced colony formation; also recorded: significantly decreased colony formation”. The apoptosis (CD34+ cells) was “did not reduce cell viability or induce apoptosis; also recorded: do not affect cell proliferation, viability, or apoptosis” and the “viability of primary CMML cells” value [3] was “significant decrease in viability; also recorded: significantly reduced the viability”.

— patent US11793825B2, “Biomarkers for predicting responsiveness to decitabine therapy” (The Regents of the University of Michigan, priority 2014, dated 2023)
